# Source: PubChem BioAssay AID1259405 (NCATS, 2018)
# Test: 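Mouse-designed siRNAs used to find CHO productivity engineering targets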 (primary screen)
# System: Chinese hamster CHO-K1 ovary cells with stable secreted eGFP expression
# Knock-down reagent: single siRNA against mouse genes, 0.8 pmol siRNA per well (2 µl of 400 nM stock)
# Duration: 3 days
# Measured: 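Per-well intracellular GFP measured by laser scanning cytometry, plus viability from ATP luminescence, each relative to plate median of non-targeting control wells, in %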
# Direction: GFP, % of control: higher = more GFP per well, higher productivity; viability (ATP), % of control: higher = more viable cells (more ATP)
# Rule for the call: 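Called active when intracellular GFP, relative to negative control, is at or above 120%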
# Here is a random part of about 50,000 reagents. About 4,000 of them (8%) count as active. 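Mouse siRNA library applied to hamster cells; one well for each siRNA.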 Reagents against one gene are numbered here.
"GFP, % of control","viability (ATP), % of control",activity call,gene,reagent
104,77.9,inactive,Dact2 (dishevelled-binding antagonist of beta-catenin 2),1
48,70.4,inactive,Dact2 (dishevelled-binding antagonist of beta-catenin 2),2
90.4,71.4,inactive,Dact2 (dishevelled-binding antagonist of beta-catenin 2),3
71.6,91.4,inactive,Slc9a9,1
84.8,85.7,inactive,Slc9a9,2
66.4,66,inactive,Slc9a9,3
82.7,84.9,inactive,Per1 (period circadian clock 1),1
64.2,88.6,inactive,Per1 (period circadian clock 1),2
96.5,104,inactive,Serinc2 (serine incorporator 2),1
72.7,96.4,inactive,Serinc2 (serine incorporator 2),2
78.2,62.9,inactive,Serinc2 (serine incorporator 2),3
84.4,76.1,inactive,Mtch2,1
69,52.1,inactive,Mtch2,2
101,90.3,inactive,Mtch2,3
21.7,36.8,inactive,"Serpind1 (serine (or cysteine) peptidase inhibitor, clade D, member 1)",1
44.6,67.6,inactive,"Serpind1 (serine (or cysteine) peptidase inhibitor, clade D, member 1)",2
64.3,83.8,inactive,"Serpind1 (serine (or cysteine) peptidase inhibitor, clade D, member 1)",3
149,127,active,Lox (lysyl oxidase),1
63.8,57.9,inactive,Lox (lysyl oxidase),2
56.2,81.6,inactive,Lox (lysyl oxidase),3
133,93.4,active,Axin2 (axin 2),1
62.6,68.2,inactive,Axin2 (axin 2),2
131,147,active,Axin2 (axin 2),3
79.9,79.3,inactive,Oxct2b (3-oxoacid CoA transferase 2B),1
67.2,58.2,inactive,Oxct2b (3-oxoacid CoA transferase 2B),2
50.6,41.1,inactive,Oxct2b (3-oxoacid CoA transferase 2B),3
53.9,38.4,inactive,Rrbp1 (ribosome binding protein 1),1
120,110,active,Rrbp1 (ribosome binding protein 1),2
106,81.7,inactive,Rrbp1 (ribosome binding protein 1),3
59.1,58.4,inactive,Zfp628 (zinc finger protein 628),1
93.2,88.1,inactive,Zfp628 (zinc finger protein 628),2
86.4,92.6,inactive,Zfp628 (zinc finger protein 628),3
64.5,74.1,inactive,Cdc123 (cell division cycle 123),1
86.3,73.3,inactive,Cdc123 (cell division cycle 123),2
65.4,88.6,inactive,Cdc123 (cell division cycle 123),3
179,82.7,active,"Fam229b (family with sequence similarity 229, member B)",1
47.8,29.9,inactive,"Fam229b (family with sequence similarity 229, member B)",2
71.1,93.9,inactive,"Fam229b (family with sequence similarity 229, member B)",3
117,94.7,inactive,"Fam229b (family with sequence similarity 229, member B)",4
114,104,inactive,"Fam229b (family with sequence similarity 229, member B)",5
98.4,114,inactive,"Fam229b (family with sequence similarity 229, member B)",6
70.3,82.9,inactive,Plcl2 (phospholipase C-like 2),1
80.3,60.1,inactive,Plcl2 (phospholipase C-like 2),2
114,108,inactive,Plcl2 (phospholipase C-like 2),3
132,126,active,"Sec63 (SEC63 homolog, protein translocation regulator)",1
116,99.7,inactive,"Sec63 (SEC63 homolog, protein translocation regulator)",2
95.8,76.7,inactive,Fkbpl (FK506 binding protein-like),1
82.8,101,inactive,Fkbpl (FK506 binding protein-like),2
80.6,78.1,inactive,Fkbpl (FK506 binding protein-like),3
88.8,54.7,inactive,Vmn1r43 (vomeronasal 1 receptor 43),1
48.2,47.5,inactive,Vmn1r43 (vomeronasal 1 receptor 43),2
54.2,86.2,inactive,Vmn1r43 (vomeronasal 1 receptor 43),3
71.2,86.1,inactive,Slc23a2,1
64.1,84.9,inactive,Slc23a2,2
60.4,90.3,inactive,Slc23a2,3
62.3,48,inactive,Inpp5e (inositol polyphosphate-5-phosphatase E),1
71.1,61.5,inactive,Inpp5e (inositol polyphosphate-5-phosphatase E),2
86.4,93.3,inactive,Inpp5e (inositol polyphosphate-5-phosphatase E),3
150,134,active,Arhgap1 (Rho GTPase activating protein 1),1
139,54.4,active,Arhgap1 (Rho GTPase activating protein 1),2
93.8,81.7,inactive,Zwilch (zwilch kinetochore protein),1
51.2,24.3,inactive,Zwilch (zwilch kinetochore protein),2
58.9,82.2,inactive,Zwilch (zwilch kinetochore protein),3
52.4,61.2,inactive,C5ar2 (complement component 5a receptor 2),1
44.2,53.8,inactive,C5ar2 (complement component 5a receptor 2),2
77.9,80.5,inactive,C5ar2 (complement component 5a receptor 2),3
47,53.1,inactive,Sugp1 (SURP and G patch domain containing 1),1
115,97.7,inactive,Sugp1 (SURP and G patch domain containing 1),2
62.4,53.7,inactive,Sugp1 (SURP and G patch domain containing 1),3
70.9,87.3,inactive,Puf60 (poly-U binding splicing factor 60),1
70.6,68.6,inactive,Puf60 (poly-U binding splicing factor 60),2
112,54,inactive,Puf60 (poly-U binding splicing factor 60),3
76.3,58.7,inactive,"Sag (S-antigen, retina and pineal gland (arrestin))",1
62.4,56.9,inactive,"Sag (S-antigen, retina and pineal gland (arrestin))",2
90.9,74.4,inactive,Slc11a1,1
36.8,39.4,inactive,Slc11a1,2
76.7,65.6,inactive,Slc11a1,3
75.4,72.1,inactive,Pex11b (peroxisomal biogenesis factor 11 beta),1
103,59.6,inactive,Pex11b (peroxisomal biogenesis factor 11 beta),2
60.6,66,inactive,Pex11b (peroxisomal biogenesis factor 11 beta),3
91.1,73.3,inactive,Ddx47 (DEAD box helicase 47),1
67.8,69.4,inactive,Ddx47 (DEAD box helicase 47),2
258,100,active,Ddx47 (DEAD box helicase 47),3
88.8,78.8,inactive,Adam21 (a disintegrin and metallopeptidase domain 21),1
127,83.6,active,Adam21 (a disintegrin and metallopeptidase domain 21),2
95.4,92.7,inactive,Adam21 (a disintegrin and metallopeptidase domain 21),3
140,104,active,"M6pr (mannose-6-phosphate receptor, cation dependent)",1
115,69.4,inactive,"M6pr (mannose-6-phosphate receptor, cation dependent)",2
97,100,inactive,Plk2 (polo like kinase 2),1
92.1,83,inactive,Leprotl1 (leptin receptor overlapping transcript-like 1),1
84.2,65.3,inactive,Leprotl1 (leptin receptor overlapping transcript-like 1),2
159,110,active,Leprotl1 (leptin receptor overlapping transcript-like 1),3
67.5,83.8,inactive,Six6 (sine oculis-related homeobox 6),1
63.8,51,inactive,Six6 (sine oculis-related homeobox 6),2
65.1,99.5,inactive,Six6 (sine oculis-related homeobox 6),3
73.3,80.5,inactive,Il15 (interleukin 15),1
68.2,56.4,inactive,Il15 (interleukin 15),2
51,50.2,inactive,Nkain4 (Na+/K+ transporting ATPase interacting 4),1
89.2,102,inactive,Nkain4 (Na+/K+ transporting ATPase interacting 4),2
216,167,active,Nkain4 (Na+/K+ transporting ATPase interacting 4),3
80.9,84.7,inactive,Cfap126 (cilia and flagella associated protein 126),1
59.5,59.3,inactive,Cfap126 (cilia and flagella associated protein 126),2
87.2,47.4,inactive,Cfap126 (cilia and flagella associated protein 126),3
101,98.2,inactive,Adsl (adenylosuccinate lyase),1
82.3,89.4,inactive,Adsl (adenylosuccinate lyase),2
74.9,46.1,inactive,Adsl (adenylosuccinate lyase),3
50.8,69.4,inactive,C230029F24Rik (RIKEN cDNA C230029F24 gene),1
68.7,60.3,inactive,C230029F24Rik (RIKEN cDNA C230029F24 gene),2
102,119,inactive,C230029F24Rik (RIKEN cDNA C230029F24 gene),3

Look-ups from above.
Value of Lox (lysyl oxidase) #3 in “viability (ATP), % of control”: 81.6
Entry of Arhgap1 (Rho GTPase activating protein 1) #1 in “activity call”: active
Value of Fkbpl (FK506 binding protein-like) #3 under “viability (ATP), % of control”: 78.1
Entry of Leprotl1 (leptin receptor overlapping transcript-like 1) #1 under “viability (ATP), % of control”: 83
Entry for Adsl (adenylosuccinate lyase) #3 under “viability (ATP), % of control”: 46.1
Value of Serpind1 (serine (or cysteine) peptidase inhibitor, clade D, member 1) #1 in “activity call”: inactive
